# Laboratory results published in the supplement of paper PMC12873370.
# The other results are listed elsewhere or left out. Many values rest on one well or one pass, so single values are uncertain.
# Tested on: MEPP (mouse ovarian epithelium Trp53/Pten KO)
# Assay: cell viability relative to untreated (fraction); higher = less growth inhibition
# Conditions: 5 µM; 3 days
row,Structure (SMILES),cell viability
1,N[C@@H](Cc1ccc(O)c(O)c1)C(=O)O,1.1
2,CC1=C(C(=O)O)N2C(=O)[C@@H](NC(=O)[C@H](N)c3ccc(O)cc3)[C@H]2SC1,0.918
3,C[C@]1(OC(=O)/C=C/c2ccccc2)C[C@@H](O)[C@]2(O)C=CO[C@@H](O[C@@H]3O[C@H](CO)[C@@H](O)[C@H](O)[C@H]3O)[C@@H]21,1.32
4,CN1CC(=O)NC1=N,1.15
5,Oc1ccc2c(c1)OC[C@]1(O)Cc3cc(O)c(O)cc3[C@H]21,1.22
6,COc1cc2ccc(=O)oc2cc1OC,1.09
7,Cn1c(=O)c2nc[nH]c2n(C)c1=O,1.27
8,N=c1ccn2c(n1)O[C@H]1[C@H](O)[C@@H](CO)O[C@H]12,0.599
9,CC(=O)N(O)CCCCCNC(=O)CCC(=O)N(O)CCCCCNC(=O)CCC(=O)N(O)CCCCCN,0.861
10,CC(C)C[C@H](NC(=O)[C@@H](O)[C@H](N)Cc1ccccc1)C(=O)O,1.06
11,Cn1cc(C(=O)O)ccc1=O,0.906
12,COc1ccc2cc([C@H](C)C(=O)O)ccc2c1,1.15
13,CCn1cc(C(=O)O)c(=O)c2cc(F)c(N3CCN(C)CC3)cc21,0.875
14,NC[C@@H]1O[C@H](O[C@H]2[C@@H](O)[C@H](O[C@@H]3[C@@H](O)[C@H](N)C[C@H](N)[C@H]3O[C@H]3O[C@H](CO)[C@@H](O)[C@H](O)[C@H]3N)O[C@@H]2CO)[C@H](N)[C@@H](O)[C@@H]1O,0.97
15,C[C@@H]1CC[C@H]2C(C)(C)[C@H]3C[C@@]12CC[C@@]3(C)O,1.03
16,OC[C@H]1OC(O)[C@H](O)[C@@H](O)[C@@H]1O (stereo not given in full),1.37
17,CC(C)=CCC[C@@H](C)[C@H]1CC[C@@]2(C)C3=C(CC[C@]12C)[C@@]1(C)CC[C@H](O)C(C)(C)[C@@H]1CC3,0.865
18,CC(=O)c1cc(O)ccc1O,1.09
19,CC(C)OC(=O)C(C(=O)OC(C)C)=C1SC=CS1,1
20,COc1cc2ccc(=O)oc2c(O[C@@H]2O[C@H](CO)[C@@H](O)[C@H](O)[C@H]2O)c1O,1.11
21,COc1ccc(/C=C\c2cc(OC)c(OC)c(OC)c2)cc1O,0.476
22,CCCCCCCCN=c1ccn(CCCCCCCCCCn2ccc(=NCCCCCCCC)cc2)cc1,0.768
23,Cc1nc(Nc2ncc(C(=O)Nc3c(C)cccc3Cl)s2)cc(N2CCN(CCO)CC2)n1,0.419
24,CC(C)C[C@H](N)C(=O)O,0.828
25,CCCCCCCCCCCCCCCCCCOCC(O)CO (stereo not given),0.923
26,Cc1cc(C)nc(NS(=O)(=O)c2ccc(N)cc2)n1,1

# Tested on: PREPP (mouse prostate epithelium Trp53/Pten KO)
# Assay: as above
# Conditions: 5 µM; 3 days
row,Structure (SMILES),cell viability
1,N=C(N)NS(=O)(=O)c1ccc(N)cc1,0.935
2,NC[C@H]1CC[C@H](C(=O)O)CC1,1.03
3,Cc1cc(O)c2c(c1)C(=O)c1cccc(O)c1C2=O,1.27
4,CC(C)[C@@H](C)[C@@H](O)[C@H](O)[C@@H](C)[C@H]1CC[C@H]2[C@@H]3COC(=O)[C@H]4C[C@H](O)[C@H](O)C[C@]4(C)[C@H]3CC[C@]12C,1.05
5,COc1ccc(-c2cc(=O)c3c(O)c(OC)c(O)c(OC)c3o2)cc1,0.839
6,O=C(O)/C=C/C=C/C(=O)O,1.07
7,CC(CC(=O)O)C(=O)O (stereo not given),1
8,CC1(C)CC[C@]2(C(=O)O)CC[C@]3(C)C(=CC[C@@H]4[C@@]5(C)CC[C@H](O[C@@H]6O[C@H](C(=O)O)[C@@H](O)[C@H](O[C@@H]7OC[C@@H](O)[C@H](O)[C@H]7O)[C@H]6O)C(C)(C)[C@@H]5CC[C@]43C)[C@@H]2C1,1.12
9,O=C1c2c(O)cccc2Cc2cccc(O)c21,1.08
10,CCOC(=O)C1=C[C@]2(CC)CCCN3CCc4c(n1c1ccccc41)[C@@H]32,0.802
11,CC[C@H]1OC(=O)[C@H](C)[C@@H](O[C@H]2C[C@@](C)(OC)[C@@H](O)[C@H](C)O2)[C@H](C)[C@@H](O[C@@H]2O[C@H](C)C[C@H](N(C)C)[C@H]2O)[C@](C)(OC)C[C@@H](C)C(=O)[C@H](C)[C@@H](O)[C@]1(C)O,0.944
12,O=c1c(O[C@@H]2O[C@H](CO)[C@H](O)[C@H](O)[C@H]2O)c(-c2ccc(O)c(O)c2)oc2cc(O)cc(O)c12,1.28
13,CO/N=C(\C(=O)N[C@@H]1C(=O)N2C(C(=O)O)=CCS[C@H]12)c1csc(N)n1,1.03
14,N[C@@H](Cc1ccc(O)c(O)c1)C(=O)O,0.931
15,CC1=C(C(=O)O)N2C(=O)[C@@H](NC(=O)[C@H](N)c3ccc(O)cc3)[C@H]2SC1,0.895
16,C[C@]1(OC(=O)/C=C/c2ccccc2)C[C@@H](O)[C@]2(O)C=CO[C@@H](O[C@@H]3O[C@H](CO)[C@@H](O)[C@H](O)[C@H]3O)[C@@H]21,0.882
17,CN1CC(=O)NC1=N,0.993
18,Oc1ccc2c(c1)OC[C@]1(O)Cc3cc(O)c(O)cc3[C@H]21,0.831
19,COc1cc2ccc(=O)oc2cc1OC,0.894
20,Cn1c(=O)c2nc[nH]c2n(C)c1=O,0.924

row,Structure (SMILES),cell viability
1,N=c1ccn2c(n1)O[C@H]1[C@H](O)[C@@H](CO)O[C@H]12,0.887
2,CC(=O)N(O)CCCCCNC(=O)CCC(=O)N(O)CCCCCNC(=O)CCC(=O)N(O)CCCCCN,0.912
3,CC(C)C[C@H](NC(=O)[C@@H](O)[C@H](N)Cc1ccccc1)C(=O)O,0.928
4,Cn1cc(C(=O)O)ccc1=O,0.981
5,COc1ccc2cc([C@H](C)C(=O)O)ccc2c1,0.929
6,CCn1cc(C(=O)O)c(=O)c2cc(F)c(N3CCN(C)CC3)cc21,0.892
7,NC[C@@H]1O[C@H](O[C@H]2[C@@H](O)[C@H](O[C@@H]3[C@@H](O)[C@H](N)C[C@H](N)[C@H]3O[C@H]3O[C@H](CO)[C@@H](O)[C@H](O)[C@H]3N)O[C@@H]2CO)[C@H](N)[C@@H](O)[C@@H]1O,0.803
8,C[C@@H]1CC[C@H]2C(C)(C)[C@H]3C[C@@]12CC[C@@]3(C)O,0.968
9,OC[C@H]1OC(O)[C@H](O)[C@@H](O)[C@@H]1O (stereo not given in full),0.852
10,CC(C)=CCC[C@@H](C)[C@H]1CC[C@@]2(C)C3=C(CC[C@]12C)[C@@]1(C)CC[C@H](O)C(C)(C)[C@@H]1CC3,0.967
11,CC(=O)c1cc(O)ccc1O,0.747
12,CC(C)OC(=O)C(C(=O)OC(C)C)=C1SC=CS1,0.842
13,COc1cc2ccc(=O)oc2c(O[C@@H]2O[C@H](CO)[C@@H](O)[C@H](O)[C@H]2O)c1O,0.969
14,COc1ccc(/C=C\c2cc(OC)c(OC)c(OC)c2)cc1O,0.685
15,CCCCCCCCN=c1ccn(CCCCCCCCCCn2ccc(=NCCCCCCCC)cc2)cc1,0.523
16,Cc1nc(Nc2ncc(C(=O)Nc3c(C)cccc3Cl)s2)cc(N2CCN(CCO)CC2)n1,0.41
17,CC(C)C[C@H](N)C(=O)O,0.974
18,CCCCCCCCCCCCCCCCCCOCC(O)CO (stereo not given),0.901
19,Cc1cc(C)nc(NS(=O)(=O)c2ccc(N)cc2)n1,0.907
